Assay results: patent US4944948A, “EGF/Liposome gel composition and method” (Liposome Technology, Inc., priority 1989, dated 1990)
Part of at least one peptide drawing is inferred or uncertain, most often the ends.

Protein sequences, listed by entry. Tags and fused reporters are not part of them. Residues count along the entry.
UniProt P01133, 971-1023 limits assumed: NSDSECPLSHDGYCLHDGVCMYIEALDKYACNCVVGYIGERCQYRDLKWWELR

Biological target: T1, radiolabled rh-EGF (Homo sapiens, UniProt P01133)
T1 construct: iodotyrosyl human recombinant epidermal growth factor was purchased from Amershal Corporation; purchased Amershal Corporation (Arlington Heights, Ill.) for the 125I-labelled tracer; unlabelled EGF from yeast (Chiron), gift of Ethicon, Inc; host or cells: yeast (unlabelled EGF)
Test: Scatchard analysis of radiolabeled rh-EGF binding to liposomes
Conditions: peptide concentration about 200 μg/ml; calculated from Kd and number of binding sites

CC[C@H](C)[C@@H]1NC(=O)[C@H](Cc2ccc(O)cc2)NC(=O)CNC(=O)[C@H](C(C)C)NC(=O)[C@H](C(C)C)NC(=O)[C@@H](NC(=O)[C@H](CC(N)=O)NC(=O)[C@@H]2CSSC[C@@H]3NC(=O)[C@H](Cc4ccc(O)cc4)NC(=O)CNC(=O)[C@H](CC(=O)O)NC(=O)[C@H](Cc4c[nH]cn4)NC(=O)[C@H](CO)NC(=O)[C@H](CC(C)C)NC(=O)[C@@H]4CCCN4C(=O)[C@@H](NC(=O)[C@H](CCC(=O)O)NC(=O)[C@H](CO)NC(=O)[C@H](CC(=O)O)NC(=O)[C@H](CO)NC(=O)[C@@H](N)CC(N)=O)CSSC[C@H](NC(=O)[C@H](C(C)C)NC(=O)CNC(=O)[C@H](CC(=O)O)NC(=O)[C@H](Cc4c[nH]cn4)NC(=O)[C@H](CC(C)C)NC3=O)C(=O)N[C@@H](CCSC)C(=O)N[C@@H](Cc3ccc(O)cc3)C(=O)N[C@@H]([C@@H](C)CC)C(=O)N[C@@H](CCC(=O)O)C(=O)N[C@@H](C)C(=O)N[C@@H](CC(C)C)C(=O)N[C@@H](CC(=O)O)C(=O)N[C@@H](CCCCN)C(=O)N[C@@H](Cc3ccc(O)cc3)C(=O)N[C@@H](C)C(=O)N2)CSSC[C@@H](C(=O)N[C@@H](CCC(N)=O)C(=O)N[C@@H](Cc2ccc(O)cc2)C(=O)N[C@@H](CCCNC(=N)N)C(=O)N[C@@H](CC(=O)O)C(=O)N[C@@H](CC(C)C)C(=O)N[C@@H](CCCCN)C(=O)N[C@@H](Cc2c[nH]c3ccccc23)C(=O)N[C@@H](Cc2c[nH]c3ccccc23)C(=O)N[C@@H](CCC(=O)O)C(=O)N[C@@H](CC(C)C)C(=O)N[C@@H](CCCNC(=N)N)C(=O)O)NC(=O)[C@H](CCCNC(=N)N)NC(=O)[C@H](CCC(=O)O)NC(=O)CNC1=O [Free EGF, Epidermal Growth Factor]
EGF adsorbed at the lipid/water interface: about 30%
